# Measurements: article PMC7051184, “C9orf72 arginine-rich dipeptide repeat proteins disrupt karyopherin-mediated nuclear import” (eLife, 2020)
# Where a SMILES comes first, the peptide text is derived from it.
# Assay: Mass spectrometry of R-DPR-induced aggregates
# Set-up: species or system human
smiles,measurement,setting,value
N=C(N)NCCC[C@H](NC(=O)[C@@H]1CCCN1C(=O)[C@H](CCCNC(=N)N)NC(=O)[C@@H]1CCCN1C(=O)[C@H](CCCNC(=N)N)NC(=O)[C@@H]1CCCN1C(=O)[C@H](CCCNC(=N)N)NC(=O)[C@@H]1CCCN1C(=O)[C@H](CCCNC(=N)N)NC(=O)[C@@H]1CCCN1C(=O)[C@H](CCCNC(=N)N)NC(=O)[C@@H]1CCCN1C(=O)[C@H](CCCNC(=N)N)NC(=O)[C@@H]1CCCN1C(=O)[C@H](CCCNC(=N)N)NC(=O)[C@@H]1CCCN1C(=O)[C@H](CCCNC(=N)N)NC(=O)[C@@H]1CCCN1C(=O)[C@H](CCCNC(=N)N)NC(=O)[C@@H]1CCCN1)C(=O)O [PR10] (H-PRPRPRPRPRPRPRPRPRPR-OH; N-terminus and C-terminus assumed),MS hits unique to the DPR,,11%
same,Number of proteins identified in aggregates by mass spectrometry,"in each of two replicates, 50 µM GR10 or 25 µM PR10 in 5 mg/ml HEK lysate, 60 min, 37°C",758
